Values joined by “and” are separate entries in the source; they are usually repeats but may differ in a detail not shown here. Identical values can stand only once. Among all 300,000 compounds or so, about 3,700 (1.2%) were called active. This list was built around the results that the source calls inconclusive (neither active nor inactive); the mix of calls is not that of the screen. Calls come from the whole dose curve; tested in HEK293 cells. Potencies beside an inconclusive call are fits to weak or partial responses and may not hold up.
Test: qHTS for Inhibitors of binding or entry into cells for Lassa Virus; note: nearly all actives have a fitted effect of over 50% in size
Settings: Lassa virus pseudotype entry inhibition, cell reporter; series mostly up to 37.9 µM
Potency is the fitted concentration of half-maximal effect.

SMILES	Potency
O=C(NC(=S)Nc1ccc(S(=O)(=O)NC2CCCCC2)cc1)c1cccs1	inconclusive: 35.5 µM [inhibitor, single point]
Cc1cc(-c2ccccc2)nc2cc(C(=O)N(Cc3ccccc3)Cc3ccccc3)nn12	inconclusive: 35.5 µM [inhibitor, single point]
COC(=O)C1=C(C)N(CC2CC2)C(=NCCc2cccnc2)NC1c1ccccc1 (stereo not drawn)	inactive
CCC(C(=O)OCC(=O)Nc1ccc(Cl)c(S(=O)(=O)N(C)C)c1)c1ccccc1 (stereo not drawn)	inconclusive: 5.62 µM [inhibitor, full curve, poor fit]
CCN(CC)c1ccc2c(cc1=O)[C@@H](NC)CCc1cc(OC)c(OC)c(OC)c1-2	active: 1.12 µM
Cc1ccc(S(=O)(=O)N2CCC[C@H]2C(=O)OC(C)C(=O)Nc2ncc(Cl)cc2Cl)cc1 (stereo partly drawn)	inactive
Cc1ccc2nc(SCc3nnc(-c4ccccc4[N+](=O)[O-])o3)c(C#N)cc2c1	inconclusive: 1.64 µM [inhibitor, partial curve, poor fit]
COc1ccc(CCN(C)C(=O)CSc2nc3ccccc3c(=O)n2CC2CCCO2)cc1OC (stereo not drawn)	inconclusive: 3.16 µM [inhibitor, partial curve, poor fit]
N=C(N)N1CCc2ccccc21	inactive
CC(C)c1ccc(S(=O)(=O)NCc2ccc3c(c2)CCN3C(=O)c2ccccc2)cc1	inconclusive: 35.5 µM [inhibitor, single point]
Cc1cccc(NS(=O)(=O)c2ccc(NC(=O)CN(c3cc([N+](=O)[O-])ccc3C)S(C)(=O)=O)cc2)c1	inconclusive: 7.08 µM [inhibitor, full curve, poor fit]
NC(N)=N/N=C/c1ccc(OCc2ccc(Cl)cc2Cl)cc1	inconclusive: 20.6 µM [inhibitor, partial curve, poor fit]
Cn1cc(C(=O)c2ccc(Cl)cc2Cl)cc1C(=O)N/N=C(\N)COc1ccc(Cl)cc1Cl	inconclusive: 14.1 µM [inhibitor, partial curve, poor fit]
Cc1cccn2c(=O)c3cc(C#N)c(=O)n(-c4nnc(SCc5ccccc5F)s4)c3nc12	inactive
COc1ccc(C2=CC(=O)CC(c3ccc(OC)cc3)C2)cc1 (stereo not drawn)	inconclusive: 3.55 µM [inhibitor, partial curve, poor fit]
O=C(Nc1ccccn1)Nc1ccccc1[N+](=O)[O-]	inactive
Cn1nc(-c2ccc(C(=O)Nc3ccc(F)cc3)cc2)c2ccccc2c1=O	inconclusive: 17.8 µM [inhibitor, partial curve, poor fit]
CCCCOc1ccccc1C(=O)N(Cc1ccc(C)o1)C1CCS(=O)(=O)C1 (stereo not drawn)	inactive
COc1cccc(COCC(O)CN2CCC(C(N)=O)CC2)c1 (stereo not drawn)	inconclusive: 35.5 µM [inhibitor, single point]
COc1ccccc1NC(=O)c1cc2c(=O)oc3ccc(C)cc3c2s1	inactive
O=C(Nc1ccc(Cl)cc1)N1CCCN(Cc2ccc(F)cc2)C1	inconclusive: 29.1 µM [inhibitor, single point]
CCC1/C(=N\O)CC(c2ccco2)NC1c1ccco1 (stereo not drawn)	inactive
CC(=O)OCCCN1c2ccccc2Nc2nnc(-c3ccccc3)cc21	inactive

SMILES	Potency
COc1cccc([C@@H]2Oc3ccc(OC)cc3C(=O)[C@@H]2O)c1	inconclusive: 2.99 µM [activator, partial curve]
CC(C)C(=O)c1c(C(C)C)nn2ccccc12	inactive
COc1ccc(-c2noc(-c3ccc(Cl)cc3)n2)cc1	inconclusive: 3.55 µM [activator, single point]
O=C(/C=C/c1ccc(OCCCF)cc1)Nc1ccnc(-c2ccncc2)n1	inactive
Cn1c(SCc2ccc(C#N)cc2)nnc1-c1ccccc1	inactive
CCOC(=O)C(CCCCOc1cccc(CC)c1)C(=O)OCC	inconclusive: 0.0092 µM [inhibitor, full curve, poor fit]
O=c1c(S(=O)(=O)c2ccccc2)cn(Cc2ccccc2)c2cc(N3CCOCC3)c(F)cc12	inconclusive: 35.5 µM [inhibitor, partial curve, poor fit]
CC1(C)Cc2cccc(OCC(=O)N3CCN(c4cccc(Cl)c4)CC3)c2O1	inconclusive: 12.6 µM [inhibitor, partial curve, poor fit]
CCOC(=O)NC(NC(=S)Nc1ccc(OC)cc1)C(Cl)(Cl)Cl (stereo not drawn)	inconclusive: 28.2 µM [inhibitor, partial curve, poor fit]
O=C(Nc1ccc(C(F)(F)F)cc1)C1CCCN(c2cnccn2)C1 (stereo not drawn)	inactive
CCOC(=O)C1=C(C)NC(C)=C(C(=O)OCC)C1C(=O)OCC(=O)NCc1ccccc1OC	inconclusive: 11.2 µM [inhibitor, partial curve, poor fit]
Cc1cc(C)cc(OCC(=O)N2CCN(c3ncccn3)CC2)c1	inconclusive: 3.55 µM [inhibitor, partial curve, poor fit]
Cc1cccc(-c2c3c(=O)n(C)c(=O)n(C)c3cn2-c2ccccc2O)c1	inconclusive: 5.01 µM [inhibitor, full curve]
CN1CCN(CC(=O)c2cc(C(C)(C)C)c(O)c(C(C)(C)C)c2)CC1	inconclusive: 25.1 µM [inhibitor, single point]
NS(=O)(=O)c1ccc(N2N=C(c3ccccc3)CC2c2cccc(F)c2)cc1 (stereo not drawn)	inconclusive: 18.4 µM [inhibitor, single point]
O=C(CNc1ccccc1)Nc1ccc(F)cc1	inconclusive: 4.61 µM [activator, single point]
CCc1ccccc1NC(=O)Nc1cc(C(=O)NCc2ccc(C)cc2)ccc1N1CCCC1	inactive
CCOc1ccccc1NC(=O)c1c(NC(=O)c2cccc(C)c2)sc2c1CCCC2	inactive
COc1ccc(Br)cc1C(=O)Nc1nc2ccc(F)cc2s1	inactive
COc1cc([C@H]2[C@@H]3CCCC[C@]3(O)CCN2CC(=O)Nc2ccc(C)cc2C)ccc1O	inconclusive: 12.6 µM [inhibitor, partial curve, poor fit]
O=C(O)Cc1csc(NC(=O)c2ccco2)n1	inactive
COc1ccc(OCc2cc(=O)[nH]c3ccccc23)cc1	inconclusive: 3.16 µM [inhibitor, partial curve, poor fit]
Cc1ccc(-c2onc3ccc(C(=O)O)cc23)cc1	inconclusive: 7.08 µM [inhibitor, partial curve, poor fit]

SMILES	Potency
CN(CC(=O)Nc1ccccc1Cl)C(=O)CSc1nncn1C	inactive
Cn1cc([C@@H]2C[C@H]3CN(C4CCCC4)C(=O)[C@]34CCCN24)c(-c2ccccc2)n1	inactive
O=C(Nc1ccc2oc(-c3cccnc3)nc2c1)c1ccc(-c2ccc(OC(F)(F)F)cc2)o1	inactive
COc1ccc(N2CCN(C(=O)CN3C(=O)CSc4c3c(C)nn4-c3ccccc3)CC2)cc1	inconclusive: 10 µM [activator, partial curve, poor fit]
O=C(Nn1c(-c2ccc(F)cc2)nc2ccccc2c1=O)c1cccnc1	inconclusive: 6.31 µM [activator, full curve, poor fit]
CCS(=O)(=O)N1CCC(c2nc(-c3ccc(C(F)(F)F)cc3)no2)CC1	inconclusive: 32.6 µM [inhibitor, single point]
Cc1cc(=O)oc2cc(OCC(=O)N3c4ccccc4CC3C)ccc12 (stereo not drawn)	inconclusive: 0.891 µM [inhibitor, full curve, poor fit]
O=C(COc1ccccc1)NC(=S)Nc1ccc2c(c1)Cc1ccccc1-2	inconclusive: 35.5 µM [activator, single point]
Cc1ccccc1/C=N\NC(=O)c1ccc(Cn2cccn2)o1	inconclusive: 1 µM [inhibitor, single point]
N=C(N)SCc1nc2ccccc2c(=O)n1-c1ccccc1Cl	inactive
COc1ccc(OC)c(CCNC(=O)c2cc3c(=O)oc4ccc(C)cc4c3s2)c1	inactive
COc1ccc(NS(=O)(=O)c2cc(NC(=O)c3ccc(S(=O)(=O)N(C)C)cc3)ccc2N2CCOCC2)cc1	inconclusive: 4.47 µM [inhibitor, partial curve, poor fit]
O=C(O)c1ccc2c(c1)CC(c1ccccc1)OC2=O (stereo not drawn)	inconclusive: 20 µM [activator, partial curve, poor fit]
CC(C)OC(=O)c1cn(-c2ccccc2)nc1-c1ccco1	inactive
O=C(Nc1ccc(N2CCN(C(=O)c3cccs3)CC2)c(Cl)c1)c1cccnc1	inconclusive: 22.4 µM [inhibitor, partial curve, poor fit]
COc1cccc(NC(=O)c2oc3ccccc3c2NC(=O)c2ccc3c(c2)OCO3)c1	inactive
O=C(Cc1c[nH]c2ccccc12)NNCc1ccc(N(CCCl)CCCl)cc1	active: 3.55 µM
Nc1nc(N)c2nc(-c3ccccc3)c(N)nc2n1	inactive and inconclusive: 5.8 µM [activator, full curve, poor fit]
CCN(CC)CC#CCC(OC)(c1ccccc1)c1ccccc1	inconclusive: 35.5 µM [inhibitor, single point]
COc1ccc(C(=O)COC(=O)CN2C(=O)C3C4CCC(C4)C3C2=O)cc1 (stereo not drawn)	inconclusive: 5.62 µM [inhibitor, single point]
COc1ccc(O)c(CN2CCN(CCc3ccccc3)C(CCO)C2)c1 (stereo not drawn)	inconclusive: 11.2 µM [inhibitor, partial curve, poor fit]
O=C(Nc1ccc(S(=O)(=O)N2CCOCC2)cc1)c1ccc(Cl)c([N+](=O)[O-])c1	inactive
